Taken from: PubChem BioAssay AID686943 (Drosophila RNAi Screening Center, 2013)
Assay: 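Fly genes whose loss alters ERK activation after insulin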 (primary screen). Cells: Drosophila S2R+ haemocyte-like cells expressing YFP-tagged ERK (Rolled). Knock-down reagent: long dsRNA against Drosophila genes. Treatment: insulin stimulation versus unstimulated cells; dose and duration not given. Measured: 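Antibody staining for doubly phosphorylated ERK divided by ERK-YFP signal, as plate z-scores, in insulin-treated and untreated cells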. Reading the numbers: replicate 1, z-score of dpERK with insulin: higher = more active ERK per ERK-YFP after insulin.
The deposit covers about 23,000 reagents; shown is an unselected part of those that have a named target and a result. 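Extra replicates exist only for a retested subset of genes; insulin dose and duration not given; both raised and lowered dpERK matter.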 Names joined by + are all predicted targets of the reagent. Not all columns of the deposit are shown. The record does not give: the amount of reagent, the time to read-out.

replicate 1, z-score of dpERK with insulin, by gene and reagent
CG9114: DRSC20155 1.31
CG18223: DRSC10306 -0.06
eIF3j (eukaryotic translation initiation factor 3 subunit j): DRSC06107 -0.95
Act88F (Actin 88F): DRSC14105 4.15
Ppox (Protoporphyrinogen oxidase): DRSC17033 -0.04
Wnt10 (Wnt oncogene analog 10): DRSC00990 -0.67; DRSC02797 0.34
narya: DRSC19439 -0.42
aust (australin): DRSC02558 0.12
CG31548: DRSC22640 0.99
CG15375: DRSC18045 0.99
CG3764: DRSC10375 -0.35
Mes2 (Mesoderm-expressed 2): DRSC11593 0.39; DRSC11632 -0.87
pcx (pecanex): DRSC18186 0.05; DRSC18187 0.25; DRSC18188 -0.42; DRSC18189 -1.67; DRSC18190 -0.62; DRSC18816 0.23
Irk1 (Inwardly rectifying potassium channel 1): DRSC14686 0.21; DRSC16106 -1.11
CG15439: DRSC00453 -0.18
Wsck: DRSC13682 -0.79
Larp4B (La-related protein 4B): DRSC08192 -0.66
Rrp4: DRSC04434 0.44
CG17734: DRSC15256 0.63
cm + Inx7: DRSC18753 0.16
Acp53C14a (Accessory gland protein 53C14a): DRSC07224 0.59
CG11123: DRSC06040 0.74
CG15201: DRSC19648 1.9
CG5391: DRSC15790 1.09
swaPsi (swallow pseudogene): DRSC21685 0.82
e(y)2b (enhancer of yellow 2b): DRSC12556 1.25
Cpr65Av (Cuticular protein 65Av): DRSC09727 0.73
Cnep1r2 (CTD nuclear envelope phosphatase 1 regulatory subunit 2): DRSC10950 0.29
Nup133 (Nucleoporin 133kD): DRSC16150 0.23
CG8777: DRSC07263 0.32
Spn100A (Serpin 100A): DRSC14596 -0.2
Cyp4d8 (Cytochrome P450 4d8): DRSC11131 -0.67
CG14778: DRSC17953 1.61
flz (filzig): DRSC07109 0.52
CG43190: DRSC05316 -0.14
ZnT41F (Zinc transporter 41F): DRSC04850 0.09
Ent1 (Equilibrative nucleoside transporter 1): DRSC00330 -0.41
snRNA:U1:95Cc + CG43285 (retired record): DRSC13640 -5.72
CG13024: DRSC09904 -0.38
Grasp65: DRSC10917 0.56

Targets above whose gene name begins with N or n (2):
replicate 1, z-score of dpERK with insulin, by gene and reagent
narya: DRSC19439 -0.42
Nup133 (Nucleoporin 133kD): DRSC16150 0.23

Additional records:
replicate 1, z-score of dpERK with insulin, by gene and reagent
RpL7A (Ribosomal protein L7A): DRSC18709 -1.35
Idgf4 (Imaginal disc growth factor 4): DRSC18675 -0.2
FucTD (alpha1,3-fucosyltransferase D): DRSC08634 0.05
CG1571: DRSC18068 0.78
CG10919: DRSC14283 0.13
CG14883: DRSC15007 -0.06
CG32333: DRSC08627 0.14; DRSC08629 -1.22
lawc (leg arista wing complex): DRSC22531 -0.22
mre11 (meiotic recombination 11): DRSC03570 -0.62; DRSC22628 -0.04
CR43359 (pseudo): DRSC03744 -3.39
Dlc90F (Dynein light chain 90F): DRSC16649 -0.16
aln (allnighter): DRSC08240 0.52
CG15818: DRSC02505 0.12
Vps39 (Vacuolar protein sorting 39): DRSC16205 0.52
CG17928: DRSC02644 -0.9
CG15128: DRSC06550 -1.18
rho-6 (rhomboid-6): DRSC02588 0.04
CG15708: DRSC06579 -0.77
E(spl)mdelta-HLH (Enhancer of split mdelta, helix-loop-helix): DRSC16698 0.54
CG30495: DRSC06703 0.06
CG34205: DRSC04149 0.57; DRSC22823 0.17
nSMase (neutral sphingomyelinase): DRSC08237 0.19
